Assay results as given in PubChem BioAssay AID624297 (National Center for Advancing Translational Sciences (NCATS), 2012).
In all, about 340,000 compounds went through this assay and about 6,200 (1.8%) were called active. The inconclusive results got no clear call from the source; some entries with a clear call stand among them for comparison. The call rests on the fitted dose curve; in most records, active means well fitted activation curve with a large enough effect; inconclusive means small, poorly fitted or top-dose-only effect; inactive means no such curve, though single readings can be large or run the other way. A potency beside an inconclusive call is a rough fit, not a confirmed value.

assay: A quantitative high throughput screen for small molecules that induce DNA re-replication in SW480 colon adenocarcinoma cells.; further: nearly all actives have a fitted effect of over 55% in size; on re-replication activation: % of control where 0% means no effect; conditions: Hoechst DNA content imaging, 48 h; re-replication activation: at 46.1 µM (top of the series) unless noted
Summary of the method: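 Per well, 250 cells were exposed to pinned compound for 48 hr. Nuclear DNA was visualised with Hoechst (40 min, 37 C) and total object intensity recorded by fluorescence scanning.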
Potency means the concentration at half of the fitted maximal effect.

Compound	Potency	re-replication activation
CNC(=S)N(CCc1c(C)[nH]c2ccc(Cl)cc12)Cc1cccnc1	inactive	–
CC(=NNC(=S)N1CCCCC1)c1cccc(C)n1	inconclusive: 0.0184 µM [activator, full curve, poor fit]	–
O=C(Nc1ccc([N+](=O)[O-])cc1)Nc1ccc([N+](=O)[O-])cc1	inactive	–
Cc1c(CC(=O)O)c(=O)oc2c(C)c3occ(-c4ccc(Br)cc4)c3cc12	inactive	–
CC(Oc1cc(F)ccc1[N+](=O)[O-])C(=O)Nc1ccc(S(=O)(=O)N2CCCC2)cc1 (stereo unspecified)	active: 16.4 µM	–
CN(C)CCCn1c(SCC(=O)N2c3ccccc3Sc3ccccc32)nc2ccccc2c1=O	inconclusive: 29.1 µM [activator, single point]	–
COc1ccc(CN(C(=O)c2snc(C(N)=O)c2N)C(C(=O)NC2CCCC2)c2ccco2)cc1 (stereo unspecified)	inactive	–
O=C(c1cccc(S(=O)(=O)N2CCOCC2)c1)N1CCCCCC1	inactive	–
COc1cc2ncc(S(=O)(=O)c3ccccc3)c(N3CCCC(C)C3)c2cc1OC (stereo unspecified)	inconclusive: 29.1 µM [activator, single point]	–
COc1ccc(C(=O)Nc2nnc(SCC(=O)NCc3ccco3)s2)c(OC)c1	inactive	–
O=C(Cn1ncc(Cl)c(Cl)c1=O)c1ccc(Cl)cc1	inconclusive: 4.11 µM [activator, full curve]	–
NC(c1ccccc1)c1ccncc1 (stereo unspecified)	inactive	–
Cc1cccc(NC(=S)NC(C)C(c2cccs2)N2CCN(C)CC2)c1C (stereo unspecified)	inconclusive: 9.2 µM [activator, partial curve, poor fit]	–
COC(=O)N1CCc2c(sc(NC(=O)C3=COCCO3)c2C#N)C1	active: 1.46 µM	–
CC(=O)Nc1ccc(S(=O)(=O)NC2=C(N3CCN(c4ccc(F)cc4)CC3)C(=O)c3ccccc3C2=O)cc1	active: 16.4 µM	–
CN(Cc1ccccn1)C(=O)CC1C(=O)NCCN1Cc1ccc(F)cc1Cl (stereo unspecified)	inconclusive: 2.59 µM [activator, full curve, poor fit]	–
COc1ccc2nc(NC(=O)CSc3nnc4n3C(C)(C)Cc3ccccc3-4)sc2c1	inactive	–
CSc1ncccc1C(=O)Nc1nc2c(C)cccc2s1	inconclusive: 29.1 µM [activator, single point]	–
O=S(=O)(NCc1ccco1)c1ccc2c(c1)Cc1ccccc1-2	inconclusive: 14.6 µM [activator, partial curve, poor fit]	–
O=C(c1ccc(Br)cc1)N1CCC(C(=O)N2CCN(c3ccccc3)CC2)CC1	inactive	–
Cc1cc([N+](=O)[O-])nn1CC(=O)N/N=C/c1ccccc1O	inconclusive: 8.2 µM [activator, partial curve]	–
CC1=NN(C(=O)c2ccc(Cn3nc(C)c([N+](=O)[O-])c3C)cc2)C(O)(C(F)(F)F)C1 (stereo unspecified)	inactive	–
COc1ccc(-c2c(C#Cc3ccc(N(C)C)cc3)c3ccccc3n2C)cc1	inconclusive: 20.6 µM [activator, single point]	–
O=C(/C=C/NNC(=O)c1ccccc1)c1ccccc1	inconclusive: 29.1 µM [activator, single point]	–

Some of the entries so far, bar-delimited:
Compound | Potency | re-replication activation
CC(=NNC(=S)N1CCCCC1)c1cccc(C)n1 | inconclusive: 0.0184 µM [activator, full curve, poor fit] | –
O=C(Nc1ccc([N+](=O)[O-])cc1)Nc1ccc([N+](=O)[O-])cc1 | inactive | –
Cc1c(CC(=O)O)c(=O)oc2c(C)c3occ(-c4ccc(Br)cc4)c3cc12 | inactive | –
CC(Oc1cc(F)ccc1[N+](=O)[O-])C(=O)Nc1ccc(S(=O)(=O)N2CCCC2)cc1 (stereo unspecified) | active: 16.4 µM | –
CN(C)CCCn1c(SCC(=O)N2c3ccccc3Sc3ccccc32)nc2ccccc2c1=O | inconclusive: 29.1 µM [activator, single point] | –

(next part)

Compound	Potency	re-replication activation
Nc1nc(C(c2ccccc2)c2ccccc2)cs1	inactive	–
CN(CC(=O)Nc1ccccc1Sc1ccccc1)Cc1nc2ccccc2c(=O)[nH]1	inconclusive: 10.3 µM [activator, partial curve, poor fit]	–
O=C(Cc1ccc(Cl)cc1)Nc1cccc(S(=O)(=O)Nc2ccccc2F)c1	inactive	–
Oc1ccc(/C=C/c2nc(-c3ccccc3O)n(-c3ccccc3)n2)cc1	inconclusive: 18.4 µM [activator, single point]	–
O=S(=O)(Nc1nc2ccccc2nc1N1CCc2ccccc2C1)c1ccc(Br)cc1	inactive	–
CCC(CC)c1nnc(NC(=O)CC(C)c2ccccc2)s1 (stereo unspecified)	inactive	–
c1c2c(cc3sc(N4CCOCC4)nc13)OCCO2	inactive	–
Cc1nnc2c(NC3CCCCC3)nc3ccccc3n12	inconclusive: 0.461 µM [activator, full curve, poor fit]	–
O=C(CN1C(=O)c2ccccc2C1=O)OCC(=O)N1CCCCC1	inactive	–
CC(C)C(CCNCc1ccccn1)c1ccc(Cl)cc1 (stereo unspecified)	inconclusive: 29.1 µM [activator, single point]	–
CN(CC(=O)Nc1ccccc1Cl)C(=O)c1cc2c(s1)CCCCC2	inconclusive: 0.184 µM [activator, full curve, poor fit]	–
Cc1cc(=O)n(-c2ccc3ccccc3n2)[nH]1	inconclusive: 20.6 µM [activator, single point]	–
O=C(Nc1cccnc1)c1ccc([N+](=O)[O-])o1	inconclusive: 20.6 µM [activator, single point]	–
CC(C)(C)c1ccc(OCC(=O)NNC(=O)C2CCCO2)cc1 (stereo unspecified)	inconclusive: 9.2 µM [activator, partial curve, poor fit]	–
CC(NC(=O)C12CC3CC(CC(C3)C1)C2)c1ccc(F)cc1 (stereo unspecified)	inconclusive: 29.1 µM [activator, single point]	–
COC(=O)CCCCCN1C(=O)NC(C2CC2)C(C(=O)OCc2ccccc2)=C1C (stereo unspecified)	inactive	–
CCc1ccc(Nc2ncc3c(n2)CC(C)CC3=O)cc1 (stereo unspecified)	inactive	–
O=C(COC(=O)c1ccc(Cl)c(S(=O)(=O)N2CCOCC2)c1)NCc1ccco1	inconclusive: 2.06 µM [activator, full curve, poor fit]	–
CCN(CC)c1ccc(NC2=C(Cl)C(=O)c3ccccc3C2=O)cc1	inconclusive: 23.1 µM [activator, single point]	–
O=C(Nc1ccc2sccc2c1)c1cccc(N2C(=O)CCC2=O)c1	inactive	–
COc1cccc(C(C(=O)NC2CCCCC2)N(C(=O)Cc2cccs2)c2ccc(-n3cnnn3)c(OC)c2)c1 (stereo unspecified)	inconclusive: 20.6 µM [activator, single point]	–
O=C(NNc1c2ccccc2nc2ccccc12)c1ccc(Cl)cc1	inconclusive: 9.2 µM [activator, partial curve, poor fit]	–
CCCC(=O)N(CCN1CCOCC1)c1nc2c(C)cccc2s1	inconclusive: 6.51 µM [activator, single point]	–
O=C(/C=C/c1ccccc1)Nc1cccc(C(=O)NC2CC2)c1	inconclusive: 1.16 µM [activator, single point]	–

Compound	Potency	re-replication activation
Cc1ccc(OCCNC(=O)CCc2ccccc2)cc1C	inconclusive: 29.1 µM [activator, single point]	–
Cc1cc(C)cc(NC(=O)c2ccc(CSc3nnnn3C)cc2)c1	–	inactive: -3.21% [at 9.22 µM]
Cc1ccc(-n2nc3ccc(NC(=O)c4cccc([N+](=O)[O-])c4C)cc3n2)cc1	inconclusive: 29.1 µM [activator, single point]	–
CCC(C)NC(=O)c1c(N)n(/N=C/c2cccnc2)c2nc3ccccc3nc12 (stereo unspecified)	active: 5.8 µM	–
COc1cccc(-c2cc(C(F)(F)F)nc(N3CCOCC3)n2)c1	inconclusive: 23.1 µM [activator, single point]	–
CCOC(=O)CC(=O)CSc1nc(-c2ccccc2)cc(-c2ccc(Cl)cc2)c1C#N	active: 20.6 µM	–
O=C(COc1ccc2ccc(=O)oc2c1)N1CCc2ccccc21	inactive	–
C=C1C(=O)OC2C=C(CO)CCC=C(CO)CC(OC(=O)C(C)C)C12 (stereo unspecified)	inconclusive: 3.66 µM [activator, partial curve, poor fit]	–
COc1ccc2cc1Oc1ccc(cc1)CC1c3c(cc4c(c3Oc3cc5c(cc3OC)CCN(C)C5C2)OCO4)CCN1C (stereo unspecified)	inconclusive: 26.6 µM [activator, partial curve, poor fit]	–
COc1ccc(NC(=O)CN(C)C(=O)/C=C/c2ccc(OCc3ccccc3)cc2)cc1	inactive	–
Cc1ccccc1OCCn1cnc2c(N)ncnc21	inactive	–
Cc1cccc(NC(=O)C(CC(C)C)NC(=O)C2CCC(C)CC2)n1 (stereo unspecified)	inconclusive: 0.326 µM [activator, full curve, poor fit]	–
COCc1cc(=O)[nH]c(-c2ccc(C(F)(F)F)cc2)n1	inconclusive: 29.1 µM [activator, single point]	–
CCC(=O)c1ccc(OCC(=O)Nc2cc(S(=O)(=O)N3CCCCC3)ccc2N2CCN(CC)CC2)cc1	inconclusive: 29.1 µM [activator, single point]	–
CCc1c(N)nc(N)nc1Nc1ccccc1C	inconclusive: 25.9 µM [activator, single point]	–
CCOC(=O)c1cc(NC(=O)Nc2nccs2)c(C)nc1C	inactive	–
CCOC(=O)Cn1c(=NC(=O)c2cc(-c3cccs3)nc3ccccc23)sc2cc(S(N)(=O)=O)ccc21	inconclusive: 3.66 µM [activator, full curve, poor fit]	–
Clc1ccc(Cn2ncc3c(NCc4ccccc4)ncnc32)cc1	inconclusive: 23.1 µM [activator, single point]	–
COc1ccccc1NC(=O)c1sc(NC(=O)c2ccco2)c(C#N)c1C	inconclusive: 29.1 µM [activator, single point]	–
CC(C)Oc1ccc(Br)cc1C(=O)N/N=C/c1c[nH]c2ccccc12	inconclusive: 23.1 µM [activator, partial curve, poor fit]	–
CCN(c1ccccc1)S(=O)(=O)c1cc(C(=O)Nc2cccc(Cl)c2)ccc1F	inconclusive: 29.1 µM [activator, single point]	–
Cc1cc(=O)[nH]c(N/N=C/C(C)c2ccccc2)n1 (stereo unspecified)	inactive	–
CCc1ccc2[nH]c(=O)c(C(c3nnnn3CC3CCCO3)N3CCCc4ccccc43)cc2c1 (stereo unspecified)	inconclusive: 16.4 µM [activator, single point]	–
